Data as given in PubChem BioAssay AID1259270 (Sanger Institute, 2017)

Purpose: 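Kinase genes whose loss is synthetically lethal with BYL719, cetuximab or trametinib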 (follow-up of hits)
Cell system: human SNU-C5 colorectal cancer cells
Knock-down reagent: single siRNA against human genes
Challenge: anchor drugs added after knock-down: BYL719 1 µM, cetuximab 5 µg/ml or trametinib 10 nM, or DMSO vehicle
Read-out: 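Replicate survival relative to non-targeting pool 2, then averaged; anchor drug added after silencing; synergy score weighs combination against each single treatment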
Scale: synergy score with BYL719 and synergy score with cetuximab and synergy score with trametinib: higher = stronger synergy (extra killing) with the drug; viability, knock-down alone (DMSO): higher = more cells survive
Call rule: 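Synergy with at least one drug when any of the three synergy scores is over 0.10; otherwise no synergy with any drug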
Meaning of the calls: active = synergy with at least one drug; inactive = no synergy with any drug
The deposit covers 160 reagents; shown is a random part of them. 76 of all reagents (48%) were called active. 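Four separate siRNAs per gene; calls are per siRNA in one cell line, looser than gene-level validation across several lines.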 Unmarked entries are inactive. Reagents against one gene are numbered here. No viability above 1 is reported: the scale is capped. The record does not give: the amount of reagent, the time to read-out.

gene | reagent no. | synergy score with BYL719 | synergy score with cetuximab | synergy score with trametinib | viability, knock-down alone (DMSO) (fraction of control)
PAK1 | 1 | -0.139 (active) | 0.109 | 0.307 | 0.899
PAK1 | 2 | -0.0993 | -0.0915 | -0.116 | 0.518
PAK1 | 3 | 0.0393 (active) | -0.208 | 0.316 | 0.816
PAK1 | 4 | -0.182 | -0.0724 | -0.0885 | 0.375
GTF2H1 | 1 | -0.189 | 0.0531 | -0.149 | 0.768
GTF2H1 | 2 | -0.162 | -0.0328 | 0.0931 | 1
GTF2H1 | 3 | 0.0231 (active) | 0.147 | -0.16 | 0.864
GTF2H1 | 4 | -0.141 | -0.152 | -0.101 | 0.655
COASY | 1 | 0.0321 | -0.0822 | -0.259 | 0.572
COASY | 2 | 0.0521 (active) | -0.0183 | 0.147 | 0.84
COASY | 3 | -0.131 | -0.00331 | -0.0629 | 0.304
COASY | 4 | -0.0295 | -0.0831 | -0.0691 | 0.47
PIK3CA | 1 | 0.147 (active) | 0.219 | 0.0125 | 0.869
PIK3CA | 2 | -0.0602 (active) | 0.315 | 0.0642 | 0.613
PIK3CA | 3 | 0.177 (active) | 0.0261 | 0.212 | 0.786
PIK3CA | 4 | -0.0313 | 0.0395 | -0.0467 | 0.756
PINK1 | 1 | -0.256 | -0.24 | 0.0534 | 0.788
PINK1 | 2 | 0.058 (active) | 0.0455 | 0.276 | 0.756
PINK1 | 3 | 0.0827 (active) | 0.147 | 0.12 | 0.864
PINK1 | 4 | 0.218 (active) | 0.125 | 0.379 | 0.953
CHD4 | 1 | -0.0686 | -0.000906 | 0.0299 | 0.375
CHD4 | 2 | -0.226 (active) | 0.0708 | 0.285 | 0.607
CHD4 | 3 | -0.105 | -0.0644 | -0.211 | 0.572
CHD4 | 4 | -0.114 | 0.0351 | -0.0553 | 0.727
IKBKB | 1 | -0.207 | -0.133 | -0.349 | 0.631
IKBKB | 2 | -0.0262 | 0.0169 | 0.075 | 0.732
IKBKB | 3 | -0.359 | -0.0966 | -0.252 | 0.619
IKBKB | 4 | -0.127 | -0.0224 | 0.0575 | 0.566
CSNK2A2 | 1 | -0.105 (active) | -0.0123 | 0.491 | 0.959
CSNK2A2 | 2 | -0.104 | -0.00112 | -0.207 | 0.156
CSNK2A2 | 3 | -0.195 | -0.132 | 0.0415 | 0.494
CSNK2A2 | 4 | -0.0318 | 0.014 | -0.0821 | 0.316
PIM1 | 1 | -0.0305 (active) | 0.0997 | 0.156 | 0.864
PIM1 | 2 | 0.08 (active) | -0.0851 | 0.291 | 0.807
PIM1 | 3 | -0.475 | -0.418 | -0.536 | 0.494
PIM1 | 4 | -0.0921 | -0.0441 | 0.0123 | 0.762
CDKN2D | 1 | -0.404 | -0.0245 | -0.0245 | 0.607
CDKN2D | 2 | -0.0606 (active) | -0.0827 | 0.116 | 0.571
CDKN2D | 3 | -0.0816 | -0.112 | -0.0184 | 0.935
CDKN2D | 4 | -0.0717 | -0.0709 | -0.0755 | 0.584
SYNCRIP | 1 | -0.134 | -0.0793 | -0.163 | 0.512
SYNCRIP | 2 | 0.14 (active) | 0.058 | -0.124 | 0.983
SYNCRIP | 3 | -0.0193 | -0.0808 | 0.0373 | 0.423
SYNCRIP | 4 | 0.0827 (active) | 0.116 | 0.401 | 1
HUNK | 1 | 0.158 (active) | 0.13 | 0.349 | 0.846
HUNK | 2 | 0.176 (active) | 0.234 | 0.272 | 0.566
HUNK | 3 | -0.0927 | -0.0242 | -0.0687 | 0.959
HUNK | 4 | -0.028 (active) | -0.112 | 0.154 | 0.935
RPS6KA4 | 1 | -0.266 | -0.0524 | -0.0802 | 0.572
RPS6KA4 | 2 | 0.132 (active) | 0.19 | 0.187 | 0.965
RPS6KA4 | 3 | -0.0683 | -0.0208 | -0.0532 | 0.762
RPS6KA4 | 4 | 0.0789 | 0.0935 | 0.0146 | 0.631
AK2 | 1 | -0.123 | -0.116 | -0.268 | 0.655
AK2 | 2 | 0.0291 (active) | -0.111 | 0.177 | 0.78
AK2 | 3 | -0.0888 (active) | -0.0233 | 0.166 | 0.941
AK2 | 4 | -0.313 | -0.0757 | 0.075 | 0.679
IRAK3 | 1 | 0.07 | -0.0691 | 0.0237 | 0.548
IRAK3 | 2 | 0.0469 (active) | 0.146 | 0.254 | 1
IRAK3 | 3 | 0.0541 (active) | 0.0482 | 0.172 | 0.941
IRAK3 | 4 | -0.138 (active) | 0.247 | 0.17 | 1
